Measurements taken from the supplement of paper PMC10060354, “Discovery of a small molecule ligand of FRS2 that inhibits invasion and tumor growth” (Cellular Oncology, 2022).
Many values rest on one well or one pass, so single values are uncertain.

Sequences of proteins named here, by UniProt entry; tags and fusion partners are left off. A change or cut given only in a name is not applied to a line headed by its entry.
UniProt Q03519, whole entry: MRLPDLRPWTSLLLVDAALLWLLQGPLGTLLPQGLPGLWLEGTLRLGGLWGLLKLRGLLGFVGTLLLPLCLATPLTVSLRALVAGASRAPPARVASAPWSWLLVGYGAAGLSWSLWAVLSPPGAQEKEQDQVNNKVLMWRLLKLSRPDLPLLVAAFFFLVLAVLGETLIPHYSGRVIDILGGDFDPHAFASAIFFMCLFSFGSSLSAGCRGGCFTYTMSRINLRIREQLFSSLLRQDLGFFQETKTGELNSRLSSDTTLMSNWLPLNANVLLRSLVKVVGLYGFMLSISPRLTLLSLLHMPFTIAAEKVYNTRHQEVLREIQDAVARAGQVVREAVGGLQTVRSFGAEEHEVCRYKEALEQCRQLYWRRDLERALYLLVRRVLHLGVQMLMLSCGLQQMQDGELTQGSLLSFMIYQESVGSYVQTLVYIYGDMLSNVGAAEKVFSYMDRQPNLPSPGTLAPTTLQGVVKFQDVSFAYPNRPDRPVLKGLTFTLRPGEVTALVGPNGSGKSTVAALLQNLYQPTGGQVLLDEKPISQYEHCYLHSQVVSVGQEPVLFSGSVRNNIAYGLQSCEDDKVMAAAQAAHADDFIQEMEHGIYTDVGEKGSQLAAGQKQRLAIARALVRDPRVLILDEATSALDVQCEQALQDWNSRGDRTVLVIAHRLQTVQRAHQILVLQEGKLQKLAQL
UniProt P08183, whole entry, looked up: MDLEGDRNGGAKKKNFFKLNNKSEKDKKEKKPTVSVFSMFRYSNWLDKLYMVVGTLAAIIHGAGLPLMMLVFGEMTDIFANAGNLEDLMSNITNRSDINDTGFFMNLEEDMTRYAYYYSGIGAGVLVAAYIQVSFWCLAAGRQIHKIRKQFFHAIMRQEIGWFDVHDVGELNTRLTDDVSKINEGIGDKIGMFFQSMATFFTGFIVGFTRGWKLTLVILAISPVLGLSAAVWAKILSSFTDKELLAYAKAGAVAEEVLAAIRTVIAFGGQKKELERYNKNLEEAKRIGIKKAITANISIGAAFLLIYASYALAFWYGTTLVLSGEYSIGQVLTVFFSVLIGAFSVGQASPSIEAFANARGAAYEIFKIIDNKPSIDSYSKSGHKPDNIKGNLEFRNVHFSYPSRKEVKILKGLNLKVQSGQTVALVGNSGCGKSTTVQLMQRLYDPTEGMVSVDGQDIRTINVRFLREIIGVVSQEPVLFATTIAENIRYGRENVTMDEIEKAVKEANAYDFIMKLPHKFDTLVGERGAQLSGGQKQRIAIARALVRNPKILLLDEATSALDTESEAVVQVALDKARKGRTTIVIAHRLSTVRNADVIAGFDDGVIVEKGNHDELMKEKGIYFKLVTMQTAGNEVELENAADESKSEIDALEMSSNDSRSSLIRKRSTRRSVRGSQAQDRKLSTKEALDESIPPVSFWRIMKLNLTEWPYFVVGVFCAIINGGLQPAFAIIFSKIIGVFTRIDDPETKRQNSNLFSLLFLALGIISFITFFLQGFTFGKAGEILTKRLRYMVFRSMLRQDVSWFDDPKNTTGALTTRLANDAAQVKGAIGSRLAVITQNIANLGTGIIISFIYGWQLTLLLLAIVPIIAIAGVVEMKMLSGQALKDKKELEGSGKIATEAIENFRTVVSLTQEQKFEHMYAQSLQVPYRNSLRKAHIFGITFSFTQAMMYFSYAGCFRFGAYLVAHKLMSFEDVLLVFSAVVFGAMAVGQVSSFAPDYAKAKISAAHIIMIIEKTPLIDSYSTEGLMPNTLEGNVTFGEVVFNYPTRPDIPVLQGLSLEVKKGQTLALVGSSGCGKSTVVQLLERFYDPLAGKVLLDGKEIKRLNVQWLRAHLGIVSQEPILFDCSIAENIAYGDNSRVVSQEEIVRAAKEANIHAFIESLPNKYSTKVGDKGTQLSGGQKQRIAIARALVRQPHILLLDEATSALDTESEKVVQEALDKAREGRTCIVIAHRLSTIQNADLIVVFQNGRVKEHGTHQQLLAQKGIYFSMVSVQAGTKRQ
UniProt Q9UK41: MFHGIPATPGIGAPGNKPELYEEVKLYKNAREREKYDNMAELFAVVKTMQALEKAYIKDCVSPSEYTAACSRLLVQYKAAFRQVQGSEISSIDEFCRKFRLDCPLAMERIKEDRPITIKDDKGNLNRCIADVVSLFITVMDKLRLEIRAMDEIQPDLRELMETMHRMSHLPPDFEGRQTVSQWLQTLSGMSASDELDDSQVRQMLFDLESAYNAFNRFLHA
UniProt P34896: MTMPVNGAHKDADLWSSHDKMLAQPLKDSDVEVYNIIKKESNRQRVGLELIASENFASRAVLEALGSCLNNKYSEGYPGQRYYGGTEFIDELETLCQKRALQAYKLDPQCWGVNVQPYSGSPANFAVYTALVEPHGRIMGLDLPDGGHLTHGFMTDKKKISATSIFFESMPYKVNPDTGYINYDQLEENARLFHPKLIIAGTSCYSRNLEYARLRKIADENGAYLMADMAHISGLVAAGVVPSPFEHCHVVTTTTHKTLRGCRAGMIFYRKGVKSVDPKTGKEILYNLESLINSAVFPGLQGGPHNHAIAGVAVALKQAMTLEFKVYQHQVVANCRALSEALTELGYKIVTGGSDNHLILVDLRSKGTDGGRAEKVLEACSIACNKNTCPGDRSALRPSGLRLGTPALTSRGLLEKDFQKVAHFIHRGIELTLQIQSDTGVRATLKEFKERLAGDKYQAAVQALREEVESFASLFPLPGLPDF
UniProt Q14156: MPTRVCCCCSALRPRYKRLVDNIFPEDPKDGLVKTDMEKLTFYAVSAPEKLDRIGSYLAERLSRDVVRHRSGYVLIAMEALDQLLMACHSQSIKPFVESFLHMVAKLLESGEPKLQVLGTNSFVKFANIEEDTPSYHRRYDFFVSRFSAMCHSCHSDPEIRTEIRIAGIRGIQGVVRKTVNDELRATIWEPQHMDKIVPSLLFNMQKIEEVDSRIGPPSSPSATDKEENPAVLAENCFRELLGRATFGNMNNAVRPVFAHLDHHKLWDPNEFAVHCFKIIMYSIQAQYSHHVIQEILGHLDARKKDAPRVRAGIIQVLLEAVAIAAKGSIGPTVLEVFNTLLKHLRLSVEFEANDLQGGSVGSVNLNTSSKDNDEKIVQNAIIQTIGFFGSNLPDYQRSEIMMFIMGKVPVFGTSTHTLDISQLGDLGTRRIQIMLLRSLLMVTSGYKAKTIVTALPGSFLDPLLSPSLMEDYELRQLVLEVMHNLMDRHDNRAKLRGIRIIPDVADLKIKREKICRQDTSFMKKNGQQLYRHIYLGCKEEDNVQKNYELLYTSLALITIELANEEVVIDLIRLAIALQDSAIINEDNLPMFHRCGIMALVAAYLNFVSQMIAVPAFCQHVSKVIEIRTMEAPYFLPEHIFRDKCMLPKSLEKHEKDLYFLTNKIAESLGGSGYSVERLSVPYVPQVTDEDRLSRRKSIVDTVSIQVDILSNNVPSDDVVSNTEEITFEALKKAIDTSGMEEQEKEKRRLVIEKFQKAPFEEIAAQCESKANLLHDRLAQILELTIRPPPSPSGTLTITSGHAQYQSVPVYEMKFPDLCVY
UniProt Q14690: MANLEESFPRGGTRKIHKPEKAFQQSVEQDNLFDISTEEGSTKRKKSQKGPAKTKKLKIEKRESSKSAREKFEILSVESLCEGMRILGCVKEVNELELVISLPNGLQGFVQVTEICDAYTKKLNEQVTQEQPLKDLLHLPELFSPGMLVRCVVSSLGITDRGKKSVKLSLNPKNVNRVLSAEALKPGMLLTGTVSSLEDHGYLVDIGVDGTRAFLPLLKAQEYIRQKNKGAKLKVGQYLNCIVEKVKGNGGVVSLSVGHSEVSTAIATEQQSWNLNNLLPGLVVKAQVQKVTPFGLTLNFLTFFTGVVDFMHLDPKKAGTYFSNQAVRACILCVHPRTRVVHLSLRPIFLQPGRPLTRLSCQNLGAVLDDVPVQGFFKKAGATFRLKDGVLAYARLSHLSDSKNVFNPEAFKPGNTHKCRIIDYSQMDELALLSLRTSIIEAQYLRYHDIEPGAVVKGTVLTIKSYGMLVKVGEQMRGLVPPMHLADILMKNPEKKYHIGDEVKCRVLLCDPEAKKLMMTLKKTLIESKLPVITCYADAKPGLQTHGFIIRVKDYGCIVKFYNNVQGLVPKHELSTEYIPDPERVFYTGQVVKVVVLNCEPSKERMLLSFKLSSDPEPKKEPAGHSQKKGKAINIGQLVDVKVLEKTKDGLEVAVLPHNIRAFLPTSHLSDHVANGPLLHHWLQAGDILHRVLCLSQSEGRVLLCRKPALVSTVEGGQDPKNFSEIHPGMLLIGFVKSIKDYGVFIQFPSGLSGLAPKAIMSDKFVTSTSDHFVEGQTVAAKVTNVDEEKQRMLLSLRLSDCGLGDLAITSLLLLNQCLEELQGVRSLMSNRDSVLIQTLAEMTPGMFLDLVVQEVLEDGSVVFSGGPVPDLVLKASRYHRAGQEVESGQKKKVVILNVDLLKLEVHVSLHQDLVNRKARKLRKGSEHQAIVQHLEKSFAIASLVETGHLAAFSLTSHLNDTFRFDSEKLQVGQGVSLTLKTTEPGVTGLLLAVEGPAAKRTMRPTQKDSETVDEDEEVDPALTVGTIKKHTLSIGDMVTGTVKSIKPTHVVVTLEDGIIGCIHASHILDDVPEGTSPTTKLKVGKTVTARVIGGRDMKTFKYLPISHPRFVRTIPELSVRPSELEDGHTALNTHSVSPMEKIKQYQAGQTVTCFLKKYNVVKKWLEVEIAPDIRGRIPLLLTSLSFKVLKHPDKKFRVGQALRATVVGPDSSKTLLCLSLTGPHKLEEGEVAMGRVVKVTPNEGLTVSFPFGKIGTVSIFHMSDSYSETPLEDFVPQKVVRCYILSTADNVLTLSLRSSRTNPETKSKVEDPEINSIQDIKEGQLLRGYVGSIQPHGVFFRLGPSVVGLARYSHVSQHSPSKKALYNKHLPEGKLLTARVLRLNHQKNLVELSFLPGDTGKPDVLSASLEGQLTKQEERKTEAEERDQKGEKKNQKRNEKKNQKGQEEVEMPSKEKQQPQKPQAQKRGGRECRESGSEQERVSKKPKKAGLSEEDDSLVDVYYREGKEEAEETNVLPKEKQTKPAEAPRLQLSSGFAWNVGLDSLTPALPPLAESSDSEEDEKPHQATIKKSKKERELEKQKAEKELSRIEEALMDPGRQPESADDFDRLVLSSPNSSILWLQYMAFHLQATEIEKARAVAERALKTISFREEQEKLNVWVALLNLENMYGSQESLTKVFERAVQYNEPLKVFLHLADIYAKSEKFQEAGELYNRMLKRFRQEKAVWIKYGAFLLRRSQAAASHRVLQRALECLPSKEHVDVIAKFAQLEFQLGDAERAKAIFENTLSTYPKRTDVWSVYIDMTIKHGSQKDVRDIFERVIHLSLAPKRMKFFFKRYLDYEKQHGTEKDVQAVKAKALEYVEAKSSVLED
UniProt P62256: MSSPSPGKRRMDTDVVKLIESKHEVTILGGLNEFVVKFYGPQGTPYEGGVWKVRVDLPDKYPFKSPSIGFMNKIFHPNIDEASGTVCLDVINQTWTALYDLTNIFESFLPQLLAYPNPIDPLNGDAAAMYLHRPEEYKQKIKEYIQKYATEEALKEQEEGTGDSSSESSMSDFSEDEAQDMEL
UniProt O94830: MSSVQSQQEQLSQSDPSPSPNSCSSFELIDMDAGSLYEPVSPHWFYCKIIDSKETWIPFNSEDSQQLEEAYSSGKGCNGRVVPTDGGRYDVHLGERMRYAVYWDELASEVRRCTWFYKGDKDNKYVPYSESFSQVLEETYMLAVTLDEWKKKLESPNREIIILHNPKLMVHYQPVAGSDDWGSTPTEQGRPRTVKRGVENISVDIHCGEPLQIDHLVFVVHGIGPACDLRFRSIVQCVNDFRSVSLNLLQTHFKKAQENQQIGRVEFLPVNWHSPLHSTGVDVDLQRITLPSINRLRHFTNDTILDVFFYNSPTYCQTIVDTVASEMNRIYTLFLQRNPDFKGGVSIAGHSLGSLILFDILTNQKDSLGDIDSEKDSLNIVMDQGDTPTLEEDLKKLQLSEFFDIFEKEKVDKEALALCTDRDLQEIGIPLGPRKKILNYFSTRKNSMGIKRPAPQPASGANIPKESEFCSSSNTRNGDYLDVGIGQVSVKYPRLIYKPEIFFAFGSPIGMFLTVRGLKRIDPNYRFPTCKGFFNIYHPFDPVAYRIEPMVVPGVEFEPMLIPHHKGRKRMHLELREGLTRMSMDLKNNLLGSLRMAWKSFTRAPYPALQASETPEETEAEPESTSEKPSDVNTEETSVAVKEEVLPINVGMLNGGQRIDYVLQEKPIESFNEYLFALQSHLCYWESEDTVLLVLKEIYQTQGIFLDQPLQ
UniProt Q9Y5V0: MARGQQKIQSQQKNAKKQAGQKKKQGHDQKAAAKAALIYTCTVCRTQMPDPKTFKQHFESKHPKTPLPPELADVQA
UniProt Q96E17: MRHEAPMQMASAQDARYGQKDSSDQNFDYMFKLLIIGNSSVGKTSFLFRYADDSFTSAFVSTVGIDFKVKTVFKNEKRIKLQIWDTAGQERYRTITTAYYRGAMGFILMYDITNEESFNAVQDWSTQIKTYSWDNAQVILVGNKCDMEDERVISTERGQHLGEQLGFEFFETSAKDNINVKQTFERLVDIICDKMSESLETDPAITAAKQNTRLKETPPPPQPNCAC

Compound: [O-][N+](C(C1=C(C(O)=C2)NC(C(C=C3)=CC=C3Cl)C4C1C=CC4)=C2Cl)=O
Assay: melting temperature shift (compound 7 minus DMSO); higher = compound stabilises the protein
Details: 10 µM
Experimental: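 Thermal proteome profiling (TMT mass spectrometry) in intact DAOY medulloblastoma cells or DAOY lysates treated with 10 µM compound 7 or DMSO, heated at 10 temperatures from 40.5 to 73.8 °C for 3 min. Melting curves were fitted with the Bioconductor TPP package, and the melting point difference between compound and vehicle is reported per protein (single curve per condition).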

[1] = system: DAOY cell lysate, treatment time: 20 min, 4 °C
[2] = system: intact DAOY cells, treatment time: 90 min, 37 °C

Target	melting temperature shift [1] [°C]	melting temperature shift [2] [°C]
LPP (UniProt Q93052)	-0.116	0.154
TAP2 (UniProt Q03519)	0.021	-1.19
ENO3 (UniProt P13929)	-1.09	
AP3D1 (UniProt O14617)	-0.8	-0.852
UniProt P22392	-0.172	-0.491
CORO1C (UniProt Q9ULV4)	-0.252	1.06
UniProt Q9Y2D2		-1.12
UniProt P12694	-0.263	
CDK3 (UniProt Q00526)		0.146
ING1 (UniProt Q9UK53)	0.569	1.97
ASCC1 (UniProt Q8N9N2)	-0.425	0.679
CPNE3 (UniProt O75131)	-0.427	0.21
RAB29 (UniProt O14966)	-1.45	-1.16
UniProt Q14686	1.3	
ABCB1 (UniProt P08183)	1.97	
NCBP2 (UniProt P52298)	-0.16	0.133
NOL6 (UniProt Q9H6R4)	0.369	
MRPL14 (UniProt Q6P1L8)	0.262	-1.89
UniProt A5D8V6	-0.156	
NAGK (UniProt Q9UJ70)	-1.18	0.0834
LMAN2L (UniProt Q9H0V9)	1	-0.957
UniProt Q9UKW4		-3.65
VPS28 (UniProt Q9UK41)	-0.719	-0.489

Target	melting temperature shift [1] [°C]	melting temperature shift [2] [°C]
MSRB3 (UniProt Q8IXL7)	-0.258	
EXOC7 (UniProt Q9UPT5)	0.299	-0.934
UniProt P14678	-0.205	1.58
TXNDC17 (UniProt Q9BRA2)	-1.35	0.0743
SHMT1 (UniProt P34896)	-0.976	-0.403
CPT2 (UniProt P23786)	-0.0322	-0.438
CMPK1 (UniProt P30085)	-0.532	-0.833
UniProt Q9UBG0	1.22	0.703
GPX4 (UniProt P36969)	-1.57	1.2
ACP2 (UniProt P11117)	1.16	-1.05
UniProt Q14156	0.642	
MRPL32 (UniProt Q9BYC8)	0.782	-0.0442
RASAL2 (UniProt Q9UJF2)	2.65	-2.44
ASH2L (UniProt Q9UBL3)	0.24	-0.263
UniProt Q9Y666		-1.41
SEH1L (UniProt Q96EE3)	0.595	-0.0516
FASTKD1 (UniProt Q53R41)		-0.464
UniProt Q9Y483	-2.33	
UniProt P48060	1.58	-0.217
GOLIM4 (UniProt O00461)	1.43	0.526
MAPKAPK2 (UniProt P49137)	-0.841	0.054
TTC5 (UniProt Q8N0Z6)	-0.489	-2.66
UniProt O15523		0.245

Single records, from the list above.
ENO3 (UniProt P13929) is listed as melting temperature shift [1] [°C]: -1.09
TTC5 (UniProt Q8N0Z6) is listed as melting temperature shift [1] [°C]: -0.489; melting temperature shift [2] [°C]: -2.66
SEH1L (UniProt Q96EE3) is listed as melting temperature shift [1] [°C]: 0.595; melting temperature shift [2] [°C]: -0.0516

Next results follow.

Target	melting temperature shift [1] [°C]	melting temperature shift [2] [°C]
EDC4 (UniProt Q6P2E9)	-0.972	0.911
UniProt P50440	-0.00519	0.848
CDK6 (UniProt Q00534)	-1.1	0.527
PDCD11 (UniProt Q14690)	0.7	
GOSR1 (UniProt O95249)	1.23	-0.91
RPS15A (UniProt P62244)	-0.707	-0.803
SLC30A9 (UniProt Q6PML9)	-2.05	-1.62
FRG1 (UniProt Q14331)	-0.601	
GPN1 (UniProt Q9HCN4)	-3.66	3.61
SEC24A (UniProt O95486)	-0.467	-0.127
UniProt Q8TEU7	-0.678	-2.59
PRDX4 (UniProt Q13162)	-0.311	
UQCRC2 (UniProt P22695)	1.27	0.855
SMARCB1 (UniProt Q12824)	-0.62	0.169
UniProt P50479	-2.48	-0.0579
CTSA (UniProt P10619)	0.115	-2.27
KPNA3 (UniProt O00505)	-0.275	0.146
UBE2H (UniProt P62256)	-0.0694	0.431
UniProt Q9P2X0	3.62	1.94
RPL22 (UniProt P35268)	-0.237	-1.04
TBC1D23 (UniProt Q9NUY8)	0.875	-0.951
DDHD2 (UniProt O94830)	3.35	-1.22
STX10 (UniProt O60499)	-0.808	2.03

Target	melting temperature shift [1] [°C]	melting temperature shift [2] [°C]
UniProt O76001	1.06	0.22
KIF20A (UniProt O95235)	-0.344	3.1
EXOC6 (UniProt Q8TAG9)	-2.8	
RPL19 (UniProt P84098)	0.545	-0.563
HGH1 (UniProt Q9BTY7)	0.708	-2.18
ZNF706 (UniProt Q9Y5V0)	-0.247	
UniProt Q06413	0.275	
LRRFIP2 (UniProt Q9Y608)	-1.89	
VTI1B (UniProt Q9UEU0)	-0.968	
ITGB1 (UniProt P05556)	2.98	
SEMA3C (UniProt Q99985)	-1.05	
RUVBL1 (UniProt Q9Y265)	-0.858	-0.678
GMPS (UniProt P49915)	-0.354	-0.685
TSNAX (UniProt Q99598)	-1.1	1.52
UniProt A4D1P6	1.54	-0.161
UniProt Q96MY1	-0.48	-2.06
UniProt Q96E17		-1.33
UniProt Q9Y6T7	2.08	-0.423
GNB1 (UniProt P62873)	4.11	-0.9
UniProt Q8NFQ8	2.12	-0.122
DYRK1A (UniProt Q13627)	-0.521	0.623
